# Measurements reported in PubChem BioAssay AID504834 (National Center for Advancing Translational Sciences (NCATS), 2011).
# Screen size: about 320,000 compounds; about 22,000 (6.9%) were called active. Inconclusive results, whose numbers are uncertain, are shown with a selection of clear calls. Calls follow the shape of the dose curve; as a rule, active = well fitted inhibition curve with a large enough effect; inconclusive = small, poorly fitted or top-dose-only effect, or another doubt; inactive = no such curve, though single readings can be large or run the other way. Potencies of inconclusive entries are doubtful fits and often do not repeat.
# Test: Primary qHTS for delayed death inhibitors of the malarial parasite plastid, 96 hour incubation
# Details: P. falciparum luciferase reporter growth; series mostly up to 28.7 µM; activity change, negative = inhibition: at the top concentration
# In short: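 Infected RBCs, 2% Hct / 0.05% parasitemia final; luciferase-reporter P. falciparum; cpd 96 h, 37 C, 5% CO2; luciferase detection reagent; luminescence.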
# % is scaled to controls: 0 for no effect and ±100 for the full control effect; potency is read from the fitted curve at half-maximal effect.
Structure (SMILES),Potency,"activity change, negative = inhibition"
O=C(O)CCCn1cc(NC(=O)COc2cccc(Cl)c2)cn1,active: 14.7 µM,
O=C1CN(C(=O)CN2C(=O)NC3(CCCCC3)C2=O)c2ccccc2N1,active: 14.7 µM,
COc1ccc(C(=O)NCC(=O)OCc2cccc(Br)c2)cc1,,inactive: 76.3%
CC(=O)NNC(=O)CN1C(=O)CN=C(c2ccccc2)c2cc(Br)ccc21,"inconclusive: 20.8 µM [inhibitor, partial curve, poor fit]",
CCOC(=O)c1sc(NC(=O)CSc2nc(C)cc(C(F)(F)F)n2)c(C#N)c1C,"inconclusive: 18.5 µM [inhibitor, single point]",
CCCn1c(C)cc(C(=O)COC(=O)c2ccc[nH]c2=O)c1C,,inactive: 73.3%
CCCCC(=O)Nc1ccc(N2CCN(C(=O)c3ccco3)CC2)cc1,"inconclusive: 18.5 µM [inhibitor, single point]",
Cc1ccccc1N(C(=O)Cc1cccs1)C(C(=O)NC1CCCCC1)c1cn(C)nc1C (stereo not given),"inconclusive: 1.47 µM [inhibitor, partial curve, poor fit]",
CC(C)CCNc1nc2c(c(=O)n(Cc3cccc(F)c3)c(=O)n2C)n1C,active: 11.7 µM,
CCOc1ccc(CCNC(=O)Cc2ccc(NC(=O)C3=C(C)OCCS3)cc2)cc1,,inactive: -37.7%
Cc1ccc(OCCNC(=O)c2ccc(C)cc2)cc1,"inconclusive: 14.7 µM [inhibitor, single point]",
COc1ccc(N(C)S(=O)(=O)c2cccc(C(=O)Nc3nc4ccccc4[nH]3)c2)cc1,"inconclusive: 16.5 µM [inhibitor, partial curve, poor fit]",
CCCCn1c(N)c(N(CCOC)C(=O)C2CCN(S(=O)(=O)c3ccc(C)c(C)c3)CC2)c(=O)[nH]c1=O,"inconclusive: 16.5 µM [inhibitor, partial curve, poor fit]",
CCOc1ccc(CNC(=O)C2Cc3cc(S(=O)(=O)N4CCCCC4)ccc3N2C(C)=O)cc1 (stereo not given),active: 10.4 µM,
O=C(CCN1C(=O)/C(=C/c2ccccc2)SC1=S)NC1CCS(=O)(=O)C1 (stereo not given),active: 13.1 µM,
C=CCn1c(O)c(/C(C)=N/NC(=S)Nc2ccccc2)c(=O)[nH]c1=O,"inconclusive: 3.29 µM [inhibitor, full curve, poor fit]",
COc1ccc(S(=O)(=O)N2CCC(C(=O)NCCC3=CCCCC3)CC2)cc1OC,"inconclusive: 11.7 µM [inhibitor, partial curve, poor fit]",
O=C1/C(=C/C=C/c2ccccc2)Oc2c1ccc(O)c2CN1CCN(CCO)CC1,"inconclusive: 13.1 µM [inhibitor, single point]",
OCC1(CCOc2ccccc2)CCN(Cc2ccc3c(c2)OCCO3)CC1,active: 11.7 µM,
CCOC(=O)c1c(N)sc2c1CCC1C(=O)N(C3CCCCC3)C(=O)C21 (stereo not given),active: 14.7 µM,
COc1ccccc1NC(=O)Nc1ccnn1C1CCN(C(=O)c2cscn2)CC1,"inconclusive: 13.1 µM [inhibitor, single point]",
COc1ccc(/C=C/C(=O)NC(=S)Nc2ccc(C(=O)O)cc2)cc1,"inconclusive: 18.5 µM [inhibitor, single point]",
CCCCC1(C)OC(=O)C(=Cc2ccc(N(C)C)cc2)C(=O)O1 (stereo not given),,inactive: 113%
CCOC(=O)c1ccc(NC(=S)N2CCC(O)CC2)cc1,,inactive: 14.3%

Structure (SMILES),Potency,"activity change, negative = inhibition"
Cc1ccccc1N1C(=O)c2ccccc2C1Nc1cccnc1 (stereo not given),"inconclusive: 13.1 µM [inhibitor, single point]",
O=C1NC(=O)/C(=C/c2ccccc2OCc2ccccc2)S1,"inconclusive: 3.29 µM [inhibitor, full curve]",
O=C(Cc1ccsc1)NCc1ccccc1F,"inconclusive: 13.1 µM [inhibitor, partial curve, poor fit]",
O=C(NCC(c1ccco1)N1CCN(c2ccccc2F)CC1)C1CCCCC1 (stereo not given),,inactive: -23%
COCCCNCC(O)COc1cccc2[nH]c(C)cc12 (stereo not given),,inactive: 38.1%
COc1ccccc1NC(=O)COC(=O)CN1C(=O)C(=O)c2ccccc21,"inconclusive: 16.5 µM [inhibitor, partial curve, poor fit]",
O=C(c1ccc(-c2cccc(Cl)c2Cl)o1)N1CCOCC1,,inactive: -28.6% [at 5.75 µM]
Cc1nc([N+](=O)[O-])cn1CC(=O)c1ccc(F)cc1,,inactive: 25.1%
C/C(=N\NC(=O)c1ccc(O)cc1)c1cc2ccccc2o1,"inconclusive: 6.57 µM [inhibitor, partial curve]",
COc1ccc(-c2cn3ccc4ccccc4c3n2)cc1,,inactive: 150%
CSc1cccc(NC(=S)N(CCC(C)C)C2CCN(C(C)C)CC2)c1,"inconclusive: 11.7 µM [inhibitor, single point]",
CCc1ccc(-c2nc(C)c(CCO)c(=O)[nH]2)cc1,"inconclusive: 5.22 µM [inhibitor, partial curve]",
Cn1c(-c2ccsc2)c(-c2cccs2)c2cc(-c3ccc4cc[nH]c4c3)ccc21,"inconclusive: 10.4 µM [inhibitor, partial curve, poor fit]",
C=CCN1C(=O)c2ccc(C(=O)N3CCN(S(=O)(=O)c4cccc([N+](=O)[O-])c4)CC3)cc2C1=O,,inactive: -39.9%
CCOc1cccc(CNCc2cccnc2)c1OCc1ccccc1,"inconclusive: 11.7 µM [inhibitor, partial curve, poor fit]",
CC(=O)Nc1ccc(-n2cc(-c3ccccc3)[nH]c2=S)cc1,,inactive: 5.87%
CCOC(=O)c1cc2[nH]c3ccccc3c2[n+](-c2ccc([N+](=O)[O-])cc2)c1N,"inconclusive: 9.28 µM [inhibitor, single point]",
COc1ccccc1CNC(=O)N/C=C/c1ccc(Cl)cc1,,inactive: -7.52%
COc1cccc(NC(=O)CN(C)C(C)C(=O)Nc2ccc(S(=O)(=O)N3CCCC3)cc2)c1 (stereo not given),active: 4.65 µM,
COc1ccc(C(=O)NC(=S)NNC(=O)c2ccc(NC(=O)C(C)C)cc2)cc1,"inconclusive: 16.5 µM [inhibitor, single point]",
CCN(CC(=O)Nc1ccc(OC)c(Cl)c1)CC(=O)NC(C)C,"inconclusive: 13.1 µM [inhibitor, single point]",
O=C(c1nn(Cc2ccccc2)c(=O)c2ccccc12)N1CCN(c2ccccn2)CC1,"inconclusive: 18.5 µM [inhibitor, single point]",
O=C1S/C(=C\c2ccccc2)C(=O)N1CC(O)Cn1c2ccccc2c2ccccc21 (stereo not given),"inconclusive: 13.1 µM [inhibitor, single point]",
CCn1cc(C(=O)NCCC(=O)NCCO)c(=O)c2cc3c(cc21)OCO3,"inconclusive: 3.7 µM [inhibitor, partial curve, poor fit]",

Structure (SMILES),Potency,"activity change, negative = inhibition"
COC(CNC(=O)c1ccc2c(c1)ncn2C1CCCCCC1)OC,"inconclusive: 0.0928 µM [inhibitor, full curve, poor fit]",
CC1(C)Cc2c(c(-c3ccco3)nc3sc4c(NCCO)ncnc4c23)CO1,"inconclusive: 8.28 µM [inhibitor, partial curve, poor fit]",
CC1CCN(C(=O)c2ccc([N+](=O)[O-])o2)CC1,,inactive: -66.9%
CC(C)(C)c1nnc(NC(=O)C2CCN(c3ncccn3)CC2)s1,"inconclusive: 18.5 µM [inhibitor, single point]",
O=C(NCc1cccnc1)C(=O)NCC(c1ccco1)N1CCN(c2ccc(F)cc2)CC1 (stereo not given),"inconclusive: 18.5 µM [inhibitor, single point]",
CCOC(=O)C1CCCN(C(=O)c2ccccc2NC(=O)C2=C(C)OCCS2)C1 (stereo not given),active: 4.15 µM,
CCOC(=O)C(CC)Sc1ncnc2c1nnn2-c1ccc(F)cc1 (stereo not given),"inconclusive: 11.7 µM [inhibitor, single point]",
CCOC(=O)N1CCN(C(=O)c2cn(CC)c3ccc(S(=O)(=O)N(C)C4CCCCC4)cc3c2=O)CC1,"inconclusive: 9.28 µM [inhibitor, partial curve, poor fit]",
Cc1ccc(Cl)cc1NC(=O)COC(=O)CN1C(=O)C2CCCCC2C1=O (stereo not given),"inconclusive: 18.5 µM [inhibitor, single point]",
O=S(=O)(Nc1cccc(-n2cnnn2)c1)c1ccc(Cl)nc1,,inactive: 26.3%
Cc1cccc(-n2nc(C(=O)c3ccco3)cc(-c3nc4ccccc4[nH]3)c2=N)c1,"inconclusive: 4.15 µM [inhibitor, partial curve, poor fit]",
COc1ccc(-c2nc(CS(=O)(=O)CC(=O)NC3CCCCC3C)c(C)o2)cc1 (stereo not given),,inactive: 35.4%
Cc1cnc(C(=O)OCC(=O)NC(=O)NC(C)C)cn1,,inactive: 20.2%
Cc1ccc(NC(=O)Cc2cccs2)cc1Cl,"inconclusive: 18.5 µM [inhibitor, single point]",
CC(C)(C)NC(=O)c1ccccc1NC(=O)c1ccc2c(c1)OCO2,,inactive: -0.676% [at 5.75 µM]
O=C(c1cc2cc(Cl)ccc2[nH]1)N1CCN(c2ccccn2)CC1,,inactive: 3.16%
Cn1c(=O)c(=O)n(C)c2cc(S(=O)(=O)CCC(=O)N3CCCCC3)ccc21,"inconclusive: 6.57 µM [inhibitor, single point]",
c1ccc(C(NCCNC(c2ccccc2)c2ccccc2)c2ccccc2)cc1,"inconclusive: 2.94 µM [inhibitor, full curve, poor fit]",
CN(CC(=O)N1CCN(Cc2ccccc2)CC1)S(=O)(=O)c1ccc(Br)cc1,,inactive: 31.3%
CC(C)OC(=O)CC(=O)CSc1nc2c(c(-c3cccs3)c1C#N)CCC2,,inactive: -3.29%
CC1(C)c2ssc(=S)c2-c2ccccc2N1C(=O)c1ccco1,active: 1.04 µM,
O=C(CN1C(=O)NC2(CCCCCC2)C1=O)NCc1ccco1,"inconclusive: 0.0586 µM [inhibitor, full curve, poor fit]",

# 5 consecutive entries already listed, for reference:
Structure (SMILES),Potency,"activity change, negative = inhibition"
COc1ccc(S(=O)(=O)N2CCC(C(=O)NCCC3=CCCCC3)CC2)cc1OC,"inconclusive: 11.7 µM [inhibitor, partial curve, poor fit]",
O=C1/C(=C/C=C/c2ccccc2)Oc2c1ccc(O)c2CN1CCN(CCO)CC1,"inconclusive: 13.1 µM [inhibitor, single point]",
OCC1(CCOc2ccccc2)CCN(Cc2ccc3c(c2)OCCO3)CC1,active: 11.7 µM,
CCOC(=O)c1c(N)sc2c1CCC1C(=O)N(C3CCCCC3)C(=O)C21 (stereo not given),active: 14.7 µM,
COc1ccccc1NC(=O)Nc1ccnn1C1CCN(C(=O)c2cscn2)CC1,"inconclusive: 13.1 µM [inhibitor, single point]",
